Experimental data taken from article PMC7142014.
Results are given in words; binding and its absence hold for the method and conditions named. In cells and extracts the contact can be indirect. Here binding means that the protein was enriched with, or labelled near, the bait; the list need not be complete.

Amino acid sequences for entries named in this document (tags omitted).
UniProt O14978: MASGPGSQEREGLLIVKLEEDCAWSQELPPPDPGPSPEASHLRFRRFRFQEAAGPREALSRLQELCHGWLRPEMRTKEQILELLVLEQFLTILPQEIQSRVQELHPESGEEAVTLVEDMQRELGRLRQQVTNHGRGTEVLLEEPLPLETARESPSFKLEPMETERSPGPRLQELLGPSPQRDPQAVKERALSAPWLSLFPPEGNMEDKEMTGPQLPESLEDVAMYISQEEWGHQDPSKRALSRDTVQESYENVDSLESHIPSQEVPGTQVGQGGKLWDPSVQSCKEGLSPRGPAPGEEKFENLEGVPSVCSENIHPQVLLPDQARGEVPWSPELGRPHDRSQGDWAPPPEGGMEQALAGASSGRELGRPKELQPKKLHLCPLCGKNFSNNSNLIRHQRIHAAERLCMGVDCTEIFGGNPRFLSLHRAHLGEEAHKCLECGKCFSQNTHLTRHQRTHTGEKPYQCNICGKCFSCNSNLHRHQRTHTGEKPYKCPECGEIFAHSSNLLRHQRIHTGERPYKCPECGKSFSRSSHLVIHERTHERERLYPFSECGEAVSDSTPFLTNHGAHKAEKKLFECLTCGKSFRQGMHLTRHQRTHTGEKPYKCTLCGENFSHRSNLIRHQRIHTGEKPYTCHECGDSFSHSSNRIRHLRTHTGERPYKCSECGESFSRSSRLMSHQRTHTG
UniProt Q13263: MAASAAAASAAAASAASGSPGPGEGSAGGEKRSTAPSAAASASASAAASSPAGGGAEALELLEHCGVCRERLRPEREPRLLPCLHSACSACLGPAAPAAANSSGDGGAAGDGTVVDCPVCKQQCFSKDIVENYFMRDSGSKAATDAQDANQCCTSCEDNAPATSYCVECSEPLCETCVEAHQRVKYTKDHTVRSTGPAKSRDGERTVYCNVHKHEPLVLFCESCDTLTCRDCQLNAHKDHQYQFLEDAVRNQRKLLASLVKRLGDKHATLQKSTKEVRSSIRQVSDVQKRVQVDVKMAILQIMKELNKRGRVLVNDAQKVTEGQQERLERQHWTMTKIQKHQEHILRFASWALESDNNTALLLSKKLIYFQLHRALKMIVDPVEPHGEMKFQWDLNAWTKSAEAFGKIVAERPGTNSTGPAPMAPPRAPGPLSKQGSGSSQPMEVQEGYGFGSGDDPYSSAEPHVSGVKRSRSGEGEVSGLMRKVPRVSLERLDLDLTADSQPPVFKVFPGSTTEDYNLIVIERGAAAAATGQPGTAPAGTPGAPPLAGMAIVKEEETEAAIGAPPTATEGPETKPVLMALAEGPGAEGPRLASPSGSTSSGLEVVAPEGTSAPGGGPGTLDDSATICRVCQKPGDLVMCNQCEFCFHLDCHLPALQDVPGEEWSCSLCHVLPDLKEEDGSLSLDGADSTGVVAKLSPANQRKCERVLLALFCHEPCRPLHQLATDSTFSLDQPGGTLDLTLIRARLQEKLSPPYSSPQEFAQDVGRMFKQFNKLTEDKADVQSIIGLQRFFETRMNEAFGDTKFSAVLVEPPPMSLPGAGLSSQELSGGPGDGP
UniProt Q92769: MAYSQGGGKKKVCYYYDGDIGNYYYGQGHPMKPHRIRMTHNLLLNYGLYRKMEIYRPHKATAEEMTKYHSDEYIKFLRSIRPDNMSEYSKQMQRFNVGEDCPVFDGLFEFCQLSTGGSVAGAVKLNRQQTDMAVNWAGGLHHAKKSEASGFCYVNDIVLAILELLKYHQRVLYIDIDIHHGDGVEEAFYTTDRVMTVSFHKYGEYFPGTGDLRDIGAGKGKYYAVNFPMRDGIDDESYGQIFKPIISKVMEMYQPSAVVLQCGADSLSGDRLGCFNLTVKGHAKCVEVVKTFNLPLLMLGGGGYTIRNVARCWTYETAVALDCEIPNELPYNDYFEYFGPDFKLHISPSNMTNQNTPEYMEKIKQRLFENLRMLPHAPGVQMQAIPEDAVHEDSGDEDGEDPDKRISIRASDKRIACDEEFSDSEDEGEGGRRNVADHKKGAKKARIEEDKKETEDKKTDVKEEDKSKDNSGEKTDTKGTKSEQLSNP

B1: UHRF1 (protein, UniProt Q96T88 1-793)
chain: MWIQVRTMDGRQTHTVDSLSRLTKVEELRRKIQELFHVEPGLQRLFYRGKQMEDGHTLFDYEVRLNDTIQLLVRQSLVLPHSTKERDSELSDTDSGCCLGQSESDKSSTHGEAAAETDSRPADEDMWDETELGLYKVNEYVDARDTNMGAWFEAQVVRVTRKAPSRDEPCSSTSRPALEEDVIYHVKYDDYPENGVVQMNSRDVRARARTIIKWQDLEVGQVVMLNYNPDNPKERGFWYDAEISRKRETRTARELYANVVLGDDSLNDCRIIFVDEVFKIERPGEGSPMVDNPMRRKSGPSCKHCKDDVNRLCRVCACHLCGGRQDPDKQLMCDECDMAFHIYCLDPPLSSVPSEDEWYCPECRNDASEVVLAGERLRESKKKAKMASATSSSQRDWGKGMACVGRTKECTIVPSNHYGPIPGIPVGTMWRFRVQVSESGVHRPHVAGIHGRSNDGAYSLVLAGGYEDDVDHGNFFTYTGSGGRDLSGNKRTAEQSCDQKLTNTNRALALNCFAPINDQEGAEAKDWRSGKPVRVVRNVKGGKNSKYAPAEGNRYDGIYKVVKYWPEKGKSGFLVWRYLLRRDDDEPGPWTKEGKDRIKKLGLTMQYPEGYLEALANREREKENSKREEEEQQEGGFASPRTGKGKWKRKSAGGGPSRAGSPRRTSKKTKVEPYSLTAQQSSLIREDKSNAKLWNEVLASLKDRPASGSPFQLFLSKVEETFQCICCQELVFRPITTVCQHNVCKDCLDRSFRAQVFSCPACRYDLGRSYAMQVNQPLQTVLNQLFPGYGNGR

target: ZNF263 (human (endogenous in U251 and U118)) (UniProt O14978); assay: affinity purification with mass spectrometry; ZNF263 immunoprecipitation from cell lysate followed by LC-MS/MS; cells not given

binding | Molecule
binds | TRIM28 (KAP1) (from UniProt Q13263 1-835)
binds | HDAC2 (from UniProt Q92769 1-488) (enzyme)
binds | B1
